Laboratory results as given in PubChem BioAssay AID662 (National Center for Advancing Translational Sciences (NCATS), 2007).
Some of the results follow. Shown are side measurements of this screen, not its main read-out; they come without a call. The list favours compounds with an active or inconclusive main result. Potencies come from curve fits of mixed quality, noted in brackets.

Assay: Cell signaling CRE-BLA (Fsk stim)
Conditions: CHO CRE-bla reporter (cAMP response element driving beta-lactamase), forskolin EC10, beta-lactamase ratio; measured here: 460 nm blue channel
Summary of the method: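 CRE-bla CHO cells stimulated with EC10 NKH 477 (water-soluble forskolin) and compound titrations, 3 h at 37C; beta-lactamase read with CCF4 after 2 h at room temperature. Activity from 460/530 nm emission ratio, AC50 values for positive or negative modulation.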

Which AC50 does the source give for `O=S(=O)(NCC(O)COCc1ccco1)c1cccs1` (stereo not drawn) here?
Its AC50 is 0.00316 µM [falling, full curve, poor fit].

For `COc1ccccc1-n1c(N)c(C(N)=O)sc1=S`, which AC50 is on record?
The AC50 was 0.126 µM [falling, full curve].

With `CCCOc1ccc(C2c3c(oc4ccccc4c3=O)C(=O)N2CCN(CC)CC)cc1OC` (stereo not drawn) as the molecule, how does the AC50 read?
The AC50 was 12.6 µM [rising, partial curve].

For `CC(NC(=O)c1cc(-c2ccc(O)cc2)on1)c1ccccc1` (stereo not drawn), which AC50 is on record?
Its AC50 is 15.8 µM [falling, partial curve].

For `CCN(CC)C(=O)c1c[nH]c2ccc(S(=O)(=O)Nc3cc(C)cc(C)c3)cc2c1=O`, which AC50 is on record?
The AC50 was 31.6 µM [falling, single point].

Which AC50 does the source give for `Cc1ccc(-c2csc3nc(C)n(-n4c(C)ccc4C)c(=O)c23)o1` here?
The AC50 was 5.01 µM [falling, single point].

Which AC50 does the source give for `CCOC(=O)c1sc(NC(=O)CSc2nc3c(cc2C#N)CCCCCC3)c(C#N)c1C` here?
The AC50 was 0.158 µM [rising, partial curve].

For `Cc1cc(C)c2c(N)c(C(=O)N3CCCCCC3)sc2n1`, which AC50 is on record?
The AC50 was 10 µM [rising, single point].

Which AC50 does the source give for `CCN1C(=O)c2cccc3c(S(=O)(=O)Nc4ccccc4OC)ccc1c23` here?
The AC50 was 6.31 µM [rising, partial curve].

For `CN(C)c1ncc2nc(-c3ccc(F)cc3)c(=O)n(Cc3cccs3)c2n1`, which AC50 is on record?
Its AC50 is 1 µM [rising, full curve].

With `CCCCCn1c(-c2ccco2)nc2nc3ccccc3nc21` as the molecule, how does the AC50 read?
Its AC50 is 12.6 µM [rising, partial curve].

Which AC50 does the source give for `COc1ccc(-c2nc(CSCC(=O)N3CCc4ccccc4C3)c(C)o2)cc1OC` here?
The AC50 was 5.01 µM [rising, partial curve].

Which AC50 does the source give for `O=C(NCc1ccco1)c1cc2nc(-c3cccs3)cc(C(F)(F)F)n2n1` here?
The AC50 was 12.6 µM [rising, partial curve].

For `Cc1ccccc1`, which AC50 is on record?
The AC50 was 31.6 µM [rising, single point].

For `CNC(=O)c1cc2c(=O)n3cccc(C)c3nc2n1C`, which AC50 is on record?
The AC50 was 0.0158 µM [rising, partial curve, poor fit].

For `Cc1c(C(=O)OC(C)C)[nH]c2c1C(=O)CCC2`, which AC50 is on record?
The AC50 was 12.6 µM [rising, single point].

For `O=C(O)c1ccc(Cl)c(S(=O)(=O)N2CCCCCC2)c1`, which AC50 is on record?
The AC50 was 10 µM [falling, partial curve].

Which AC50 does the source give for `O=C(Nc1ccc2c(c1)OCCO2)c1ccccc1F` here?
The AC50 was 0.00316 µM [falling, full curve, poor fit].

For `C[n+]1cccc(/C=C\c2ccc3cccc(O)c3n2)c1`, which AC50 is on record?
The AC50 was 5.01 µM [rising, single point].

With `O=C(CCn1c(=O)oc2ccccc21)N1CCc2ccccc21` as the molecule, how does the AC50 read?
The AC50 was 3.16 µM [falling, partial curve].

Which AC50 does the source give for `CC(C)=CCCC(C)CN1CCC(O)CC1` (stereo not drawn) here?
Its AC50 is 25.1 µM [rising, single point].

With `CCC1CCCCN1C(=O)Cn1c(=O)oc2ccccc21` (stereo not drawn) as the molecule, how does the AC50 read?
The AC50 was 5.01 µM [falling, partial curve].

Which AC50 does the source give for `CCOC(=O)C(NC(=O)c1ccccc1)(Nc1cc(C)on1)C(F)(F)F` (stereo not drawn) here?
The AC50 was 0.398 µM [falling, partial curve].

With `CCN(C(C)=O)c1nnc(CSc2nc3ccccc3s2)s1` as the molecule, how does the AC50 read?
Its AC50 is 25.1 µM [rising, single point].

For `CCn1c(N2CCN(CC(=O)c3c(C)n(C)c4ccccc34)CC2)nc2c1c(=O)[nH]c(=O)n2C`, which AC50 is on record?
Its AC50 is 12.6 µM [rising, single point].

For `Cc1cccc(CNc2nc(-c3ccc(C(=O)N(C)C)cc3)nc3ccccc23)c1`, which AC50 is on record?
The AC50 was 1.58 µM [rising, partial curve].

Which AC50 does the source give for `CCCCn1c(CN(Cc2ccccc2)Cc2ccccc2)nc2c1c(=O)n(C)c(=O)n2C` here?
The AC50 was 0.126 µM [rising, single point].

For `COc1ccc(N=Cc2c(O)[nH]c3ccccc23)cc1OC`, which AC50 is on record?
The AC50 was 6.31 µM [rising, partial curve].

For `CC[C@@]1(O)C(=O)OCc2c1cc1n(c2=O)Cc2cc3c(CN(C)C)c(O)ccc3nc2-1`, which AC50 is on record?
The AC50 was 2 µM [rising, partial curve].

With `COC(=O)c1ccccc1NC(=O)c1cccc(NC(=O)c2ccc(Br)o2)c1C` as the molecule, how does the AC50 read?
Its AC50 is 12.6 µM [rising, partial curve].

For `CCC(Sc1nncn1C)C(=O)Nc1nnc(-c2ccc(Cl)cc2)s1` (stereo not drawn), which AC50 is on record?
Its AC50 is 10 µM [rising, single point].

Which AC50 does the source give for `COc1cccc(-c2cc3nc4c(c(N5CCC6(CC5)OCCO6)n3n2)CCCC4)c1` here?
Its AC50 is 5.01 µM [rising, single point].

With `O=C(CSc1nc2ccccc2c2ccccc12)c1ccccc1` as the molecule, how does the AC50 read?
The AC50 was 5.01 µM [rising, single point].

For `COc1cc(NC(=O)c2cc3ccccc3o2)c(OC)cc1Cl`, which AC50 is on record?
Its AC50 is 10 µM [rising, partial curve].

For `C=CCc1c(C)nc(SCc2nc3ccccc3c(=O)[nH]2)[nH]c1=O`, which AC50 is on record?
Its AC50 is 10 µM [rising, partial curve].

Which AC50 does the source give for `CC(=O)Nc1cc(OC(=O)c2ccco2)cc(OC(=O)c2ccco2)c1` here?
The AC50 was 10 µM [falling, partial curve].

For `CCC(C)NC(=O)COc1ccc(S(=O)(=O)N2CCOCC2)cc1` (stereo not drawn), which AC50 is on record?
The AC50 was 3.98 µM [falling, single point].

For `Cc1ccc(C2C3=C(CCCC3=O)Nc3nc(SCC(=O)NCc4ccco4)[nH]c(=O)c32)cc1` (stereo not drawn), which AC50 is on record?
The AC50 was 0.2 µM [falling, full curve].

Which AC50 does the source give for `Cc1ccccc1CS(=O)(=O)CCC(=O)N1CCN(c2ccc(N3CCOCC3)nn2)CC1` here?
The AC50 was 6.31 µM [rising, partial curve, poor fit].

For `Cc1ccc(-n2ncc3c(NCc4ccco4)ncnc32)c(C)c1`, which AC50 is on record?
Its AC50 is 25.1 µM [rising, single point].

Which AC50 does the source give for `Cn1c(C(=O)N2CCN(C(=O)c3ccco3)CC2)cc2c(=O)n(C)c3ccccc3c21` here?
Its AC50 is 2.51 µM [rising, full curve].

Which AC50 does the source give for `Cc1cc2n(n1)C(c1ccc3c(c1)OCO3)Nc1ccccc1-2` (stereo not drawn) here?
Its AC50 is 15.8 µM [rising, partial curve].

With `COc1ccc2nc3cc(Cl)ccc3c(Nc3ccc(O)c(CN4CCN(C)CC4)c3)c2c1` as the molecule, how does the AC50 read?
The AC50 was 2.51 µM [rising, partial curve].

Which AC50 does the source give for `O=C(CCc1nc2ccccc2c(=O)[nH]1)NC1CCN(Cc2ccccc2)CC1` here?
The AC50 was 5.01 µM [falling, single point].

Which AC50 does the source give for `CCOC(=O)c1ccc(NS(=O)(=O)c2cc(-c3nnnn3C(C)C)ccc2OC)cc1` here?
Its AC50 is 25.1 µM [rising, single point].

Which AC50 does the source give for `COC(=O)c1c(C#N)c(N)nc2c1CCCC2` here?
Its AC50 is 12.6 µM [rising, partial curve].

With `Cc1cc(C)n(-c2nc3ccccc3nc2Nc2ccc3[nH]c(=O)[nH]c3c2)n1` as the molecule, how does the AC50 read?
Its AC50 is 12.6 µM [rising, partial curve, poor fit].

With `c1ccc(CCc2nc(-c3ccncc3)no2)cc1` as the molecule, how does the AC50 read?
Its AC50 is 0.631 µM [falling, partial curve].

Which AC50 does the source give for `Cc1ccc(NCc2nnc(SCC(=O)Nc3ccccc3)n2CC2CCCO2)c(C)c1` (stereo not drawn) here?
Its AC50 is 25.1 µM [falling, single point].

With `CC(C(=O)NCCCN1CCOCC1)n1cccc1C(=O)c1ccccc1` (stereo not drawn) as the molecule, how does the AC50 read?
The AC50 was 0.02 µM [falling, full curve, poor fit].

For `COc1cccc(Nc2ncc3nc(C)c(=O)n(CCC#N)c3n2)c1`, which AC50 is on record?
The AC50 was 7.94 µM [rising, partial curve].

Which AC50 does the source give for `COc1ccc(CCNC(=O)c2c[nH]c3ccccc3c2=O)cc1OC` here?
The AC50 was 10 µM [rising, partial curve].

For `Cc1nc(NCCCn2ccnc2)c2ccccc2n1`, which AC50 is on record?
Its AC50 is 12.6 µM [falling, single point].

Which AC50 does the source give for `COc1ccccc1N=c1oc2cc(O)ccc2cc1C(=O)NCC1CCCO1` (stereo not drawn) here?
The AC50 was 10 µM [rising, partial curve].

With `COC(=O)C1CCN(C(=O)NC2CCCCC2)CC1` as the molecule, how does the AC50 read?
The AC50 was 0.0316 µM [falling, full curve, poor fit].

Which AC50 does the source give for `CCOc1ccccc1OCC(=O)O` here?
The AC50 was 3.98 µM [falling, single point].

Which AC50 does the source give for `CCS(=O)(=O)NCC(c1cccnc1)N1CCN(c2ccccc2F)CC1` (stereo not drawn) here?
The AC50 was 0.316 µM [falling, partial curve].

Which AC50 does the source give for `O=P(O)(O)CCP(=O)(c1ccccc1)c1ccccc1` here?
Its AC50 is 10 µM [rising, partial curve, poor fit].

With `COc1cc2c(=O)n(Cc3ccco3)c(=O)n(CC(=O)c3ccc(Br)cc3)c2cc1OC` as the molecule, how does the AC50 read?
Its AC50 is 2.51 µM [rising, single point].

With `CC1(C(=O)NC2CCCCCCC2)CCC(=O)N1Cc1cccnc1` (stereo not drawn) as the molecule, how does the AC50 read?
Its AC50 is 25.1 µM [rising, single point].

For `COc1cccc(Nc2ncc3nc(C)c(=O)n(Cc4cccs4)c3n2)c1`, which AC50 is on record?
Its AC50 is 10 µM [rising, partial curve].

Which AC50 does the source give for `COc1ccc(OC)c(C2=NOC(C(=O)NCc3ccccn3)C2)c1` (stereo not drawn) here?
Its AC50 is 0.0398 µM [falling, full curve, poor fit].

Which AC50 does the source give for `COC(=O)C1=C(N)Oc2cc(C)n(Cc3ccncc3)c(=O)c2C1c1cccnc1` (stereo not drawn) here?
The AC50 was 3.98 µM [falling, single point].

For `Cc1cccc(Cn2c(N3CCCCC3C)nc3c2c(=O)[nH]c(=O)n3C)c1` (stereo not drawn), which AC50 is on record?
Its AC50 is 2.51 µM [rising, single point].

For `COc1ccc(-c2nc3cnc(Nc4ccccc4)nc3n(C[C@H]3CCCO3)c2=O)cc1`, which AC50 is on record?
The AC50 was 2.51 µM [rising, full curve].

Which AC50 does the source give for `CN(C)c1ncnc2ccc(-c3cccc(NS(C)(=O)=O)c3)cc12` here?
Its AC50 is 6.31 µM [rising, partial curve].

Which AC50 does the source give for `CCC(=O)N1CCN(c2ccccc2NC(=O)COc2ccccc2Cl)CC1` here?
The AC50 was 1 µM [rising, full curve, poor fit].

Which AC50 does the source give for `Cc1cnc(CNc2cc(-c3cccnc3)ncn2)cn1` here?
Its AC50 is 12.6 µM [rising, single point].
